# Data as given in PubChem BioAssay AID1259254 (NCATS, 2017).
# Purpose: 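Finding genes that stop cells copying their DNA twice in one cycle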 (primary screen)
# Cell system: human HCT116 colorectal cancer cells
# Reagents: single siRNA against human genes
# Duration: 3 days
# Measurement: 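Nuclei stained with Hoechst and imaged; cell-cycle phase assigned by DNA content; G2 share scaled per plate, non-targeting siRNA 0%, GMNN siRNA 100%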
# Scale: G2 robust z-score and G2 cells, % of GMNN control: higher = more G2 cells, more excess DNA replication; raw share of cells in G2: higher = larger share of cells with G2 DNA content
# Rule for the call: 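Active siRNAs have a G2 robust z of 5 or more median absolute deviations over the median, which in these data means about 38% or higher of GMNN control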
# Shown is a random part of about 59,000 reagents. About 1,550 of them (2.6%) were called active. 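G2 share is only a proxy for re-replication; each gene was hit by three separate siRNAs, and active genes were retested.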 Raw values vary from plate to plate and are shown uncorrected. A number with no mark means an inactive call. Reagents against one gene are numbered here. Not stated in the record: the amount of reagent.
The opening 4 records as a preview:
G2 robust z-score,"G2 cells, % of GMNN control",raw share of cells in G2 (%),Target gene,siRNA no.
0.305,5.11,6.36,AKIP1 (GeneID 56672),1
-0.196,1.59,5.22,AKIP1 (GeneID 56672),2
-0.501,-0.561,2.85,AKIP1 (GeneID 56672),3
4.67,35.8,17.5,PPFIA4 (GeneID 8497),1

The listing, from the first entry:
G2 robust z-score,"G2 cells, % of GMNN control",raw share of cells in G2 (%),Target gene,siRNA no.
0.305,5.11,6.36,AKIP1 (GeneID 56672),1
-0.196,1.59,5.22,AKIP1 (GeneID 56672),2
-0.501,-0.561,2.85,AKIP1 (GeneID 56672),3
4.67,35.8,17.5,PPFIA4 (GeneID 8497),1
-0.739,-2.23,3.52,PPFIA4 (GeneID 8497),2
-0.444,-0.158,5.21,PPFIA4 (GeneID 8497),3
-0.0176,2.84,5.02,LOC728587 (GeneID 728587),1
-0.121,2.12,4,LOC728587 (GeneID 728587),2
0.496,6.46,5.62,LOC728587 (GeneID 728587),3
-0.407,0.104,4.3,VCAM1 (GeneID 7412),1
-0.0226,2.81,5.4,VCAM1 (GeneID 7412),2
-0.276,1.03,6.03,VCAM1 (GeneID 7412),3
1.31,12.2,10.2,PIP (GeneID 5304),1
0.609,7.25,7.09,PIP (GeneID 5304),2
0.805,8.63,6.47,PIP (GeneID 5304),3
-0.158,1.86,5.76,CFP (GeneID 5199),1
-0.189,1.64,4.87,CFP (GeneID 5199),2
-1.11,-4.88,1.59,CFP (GeneID 5199),3
-0.219,1.43,3.58,CRTC2 (GeneID 200186),1
3.63,28.5,13.1,CRTC2 (GeneID 200186),2
0.461,6.21,5.7,CRTC2 (GeneID 200186),3
0.895,9.27,7.2,IQCF6 (GeneID 440956),1
-0.989,-3.99,1.9,IQCF6 (GeneID 440956),2
0.0404,3.25,4.22,IQCF6 (GeneID 440956),3
-0.458,-0.256,5.47,ADAM12 (GeneID 8038),1
0.48,6.34,7.15,ADAM12 (GeneID 8038),2
-0.672,-1.76,3.25,ADAM12 (GeneID 8038),3
-0.094,2.31,5.28,ARHGAP8 (GeneID 23779),1
-0.0201,2.83,5.16,ARHGAP8 (GeneID 23779),2
2,17.1,9.26,ARHGAP8 (GeneID 23779),3
2.2,18.5,10.3,OR6C3 (GeneID 254786),1
-0.47,-0.341,3.01,OR6C3 (GeneID 254786),2
9.15 (active),67.4,24.7,OR6C3 (GeneID 254786),3
0.528,6.68,8.79,ALG11 (GeneID 440138),1
6.14 (active),46.2,23,ALG11 (GeneID 440138),2
2.49,20.5,11.8,ALG11 (GeneID 440138),3
-1.11,-4.81,2.16,INO80C (GeneID 125476),1
-1.43,-7.11,1.21,INO80C (GeneID 125476),2
-0.392,0.208,1.88,INO80C (GeneID 125476),3
5.08 (active),38.7,21.4,RPL3 (GeneID 6122),1
2.3,19.2,11.8,RPL3 (GeneID 6122),2
1.9,16.3,9.25,RPL3 (GeneID 6122),3
5.36 (active),40.7,20.6,PDIA4 (GeneID 9601),1
-0.888,-3.28,2.08,PDIA4 (GeneID 9601),2
-1.14,-5.07,2.69,PDIA4 (GeneID 9601),3
-1.1,-4.78,2.73,NEIL3 (GeneID 55247),1
1,10,8.52,NEIL3 (GeneID 55247),2
-0.621,-1.4,5.82,NEIL3 (GeneID 55247),3
-0.397,0.175,5.05,MAGEA9 (GeneID 4108),1
-0.17,1.77,4.92,MAGEA9 (GeneID 4108),2
-0.0767,2.43,4.23,MAGEA9 (GeneID 4108),3
1.38,12.7,8.84,LRRC4 (GeneID 64101),1
-0.0661,2.5,5.13,LRRC4 (GeneID 64101),2
-0.901,-3.38,4.25,LRRC4 (GeneID 64101),3
-0.333,0.625,5.52,PKD2L1 (GeneID 9033),1
-0.466,-0.311,4.68,PKD2L1 (GeneID 9033),2
0.109,3.74,5.83,PKD2L1 (GeneID 9033),3
0.98,9.86,8.23,TTYH1 (GeneID 57348),1
2.28,19,13.5,TTYH1 (GeneID 57348),2
0.0555,3.36,4.09,TTYH1 (GeneID 57348),3
-0.314,0.756,3.06,ZNF606 (GeneID 80095),1
-0.872,-3.17,4.48,ZNF606 (GeneID 80095),2
-1.03,-4.31,2.28,ZNF606 (GeneID 80095),3
-0.788,-2.58,4.17,SYCP2 (GeneID 10388),1
0.406,5.82,6.37,SYCP2 (GeneID 10388),2
0.171,4.17,4.92,SYCP2 (GeneID 10388),3
2.96,23.8,13.7,HOXC13 (GeneID 3229),1
-0.411,0.0761,4.23,HOXC13 (GeneID 3229),2
0.693,7.84,8.67,HOXC13 (GeneID 3229),3
